# Article PMC8520955
# What was measured:
# PaTIP1-1 (P. armeniaca) = assay: two-hybrid; Matchmaker Gold Yeast Two Hybrid System (Clontech); PaAQP baits in pGBKT7, predicted partners as prey in pGADT7, cotransformed into yeast strain Gold Y2H; SD/-Leu/-Trp/-His/-Ade with 100 uM aureobasidin A and 3 mg/mL X-alpha-Gal, 30°C
# PaPIP2-1 (P. armeniaca) = assay: as above
Binder,binding (PaTIP1-1 (P. armeniaca)),binding (PaPIP2-1 (P. armeniaca))
"TSPO (protein, UniProt O82245 1-196) MDSQDIRYRGGDDRDAATTAMAETERKSADDNKGKRDQKRAMAKRGLKSLTVAVAAPVLVTLFATYFLGTSDGYGNRAKSSSWIPPLWLLHTTCLASSGLMGLAAWLVWVDGGFHKKPNALYLYLAQFLLCLVWDPVTFRVGSGVAGLAVWLGQSAALFGCYKAFNEISPVAGNLVKPCLAWAAFVAAVNVKLAVA",binds,
"phosphatidylinositol-specific phospholipase C AtPLC1 (ATHATPLC1G) (protein, UniProt Q39032 1-561) MKESFKVCFCCVRNFKVKSSEPPEEIKNLFHDYSQDDRMSADEMLRFVIQVQGETHADINYVKDIFHRLKHHGVFHPRGIHLEGFYRYLLSDFNSPLPLTREVWQDMNQPLSHYFLYTGHNSYLTGNQLNSNSSIEPIVKALRNGVRVIELDLWPNSSGKEAEVRHGGTLTSREDLQKCLNVVKENAFQVSAYPVVLTLEDHLTPILQKKVAKMVSKTFGGSLFQCTDETTECFPSPESLKNKILISTKPPKEYLQTQISKGSTTDESTRAKKISDAEEQVQEEDEESVAIEYRDLISIHAGNRKGGLKNCLNGDPNRVIRLSMSEQWLETLAKTRGPDLVKFTQRNLLRIFPKTTRFDSSNYDPLVGWIHGAQMVAFNMQSHGRYLWMMQGMFKANGGCGYVKKPDVLLSNGPEGEIFDPCSQNLPIKTTLKVKIYTGEGWNMDFPLDHFDRYSPPDFYAKVGIAGVPLDTASYRTEIDKDEWFPIWDKEFEFPLRVPELSLLCITVKDYDSNTQNDFAGQTCFPLSEVRPGIRAVRLHDRAGEVYKHVRLLMRFVLEPR",,binds

# No constants are given. Whether binding was seen depends on the method and setting. Binding calls can cover weak binding; strength is not graded here.
